Earlier results on one compound are cited in US20260076970A1, “CANCER TREATMENT USING MTDP INHIBITORS AND PLK1 INHIBITORS” (Cardiff Oncology, Inc., priority 2022, published 2026).

For this data set the following is noted: cited from earlier work.

For `CC(=O)O[C@H]1C(=O)[C@@]2(C)[C@H]([C@H](OC(=O)c3ccccc3)[C@]3(O)C[C@H](OC(=O)[C@H](O)[C@@H](NC(=O)c4ccccc4)c4ccccc4)C(C)=C1C3(C)C)[C@]1(OC(C)=O)CO[C@@H]1C[C@@H]2O` [paclitaxel, 5β,20-Epoxy-1,2α,4,7β,10β,13α-hexahydroxytax-11-en-9-one 4,10-diacetate 2-benzoate 13-ester with (2R,3S)-N-benzoyl-3-phenylisoserine], the solubility in water result is listed as “insoluble in water”.
